Assay results reported in PMC7450086.
These are yes or no findings as the source states them, for the method shown. In cells and extracts the contact can be indirect. A yes stands for co-enrichment or nearness to the bait. Other partners may have been found. Where a sequence is shown, tags or fusion partners need not be part of it.

T1: EGFP-Spn-F (Spindle-F) (Drosophila) (UniProt Q9V9Y9)
T1 sequence: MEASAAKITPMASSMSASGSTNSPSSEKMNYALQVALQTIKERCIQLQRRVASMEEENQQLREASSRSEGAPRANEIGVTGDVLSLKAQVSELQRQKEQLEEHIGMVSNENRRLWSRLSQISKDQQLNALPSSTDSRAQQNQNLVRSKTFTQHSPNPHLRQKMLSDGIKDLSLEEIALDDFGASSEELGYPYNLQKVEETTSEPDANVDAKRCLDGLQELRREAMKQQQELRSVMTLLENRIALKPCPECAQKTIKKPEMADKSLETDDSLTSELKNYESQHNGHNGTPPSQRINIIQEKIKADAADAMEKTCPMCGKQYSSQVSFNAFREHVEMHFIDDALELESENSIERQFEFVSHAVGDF

B1: Hook (protein, UniProt Q24185 1-679)
chain: MSAPKNEMYYSLLEWFKTLNLNAPHADAESLADGVALAQALNQFAPESFTDAWLSKIKASAVGSNWRLRMSNLKKVTQSVYDYYSDVLNYSLSDFSKPDLQRIAEKCDLGELERLLQLVLGCAVNCAEKQSYITEIMCLEEELQANIMRALQELEATRQASTPEGGVASSLSRGSRTGLLDSKAVQEDRDALAQKCFETEKKMLLLIDEKTNLQQELHKLQQEFARLEQHSTVIGDDGVSLGPVQTGSVRYNELRRQLDLLKEELLQSEGAREDLKIKAQQQDTDLLHMQMRIEELMKSSAEVTTLKDEVDVLRESNDKLKICEAQLDTYKKKLEDYNDLKKQVKILEERSADYVQQNAQFEEDAKRYANTKGQVELFKKEIQDLHAKLDAESSKNVKLEFDNKNLESKNLALQRAKDSLLKERDNLREAVDELKCGQLSSNTALTGTTVSRELQPSATVEKLQRLEAENKALREGQGGQTALAQLLDDANKRCENLREQLKTANERILSLSHASQSDDPILKESEFGKQIKQLMELNEQKTLQLEEAVTQSTSLQCKVTQLETNLSAREQEILVYDAKYRKCVEKAKEVIKSIDPRIASALDASVLEKSADLVEEEPKPKMSVMEEQLMTSAFYRLGVNAQRDAIDSKLAILMGSGQTFLARQRQSAPRKSLSAMKSK
B2: I-kappaB kinase ε (Ik2) (enzyme, UniProt Q7KJQ4 1-711)
chain: MSFLRGSVSYVWCTTSVLGKGATGSVFQGVNKITGESVAVKTFNPYSHMRPADVQMREFEALKKVNHENIVKLLAIEEDQEGRGKVIVMELCTGGSLFNILDDPENSYGLPEHEFLLVLEHLCAGMKHLRDNKLVHRDLKPGNIMKFISEDGQTIYKLTDFGAARELEDNQPFASLYGTEEYLHPDLYERAVLRKSIQRSFTANVDLWSIGVTLYHVATGNLPFRPFGGRKNRETMHQITTKKASGVISGTQLSENGPIEWSTTLPPHAHLSQGLKTLVTPLLAGLLEENREKTWSFDRFFHEVTLILRKRVIHVFFTNRTSSVEVFLEPDEQIDNFRERIFLQTEVPLEKQILLFNNEHLEKKVTPRTIDQPIFLYSNDDNNVQLPQQLDLPKFPVFPPNVSVENDASLAKSACSVGHECKRRVDIFTSMDILIKKGVEHFIEMLVTTITLLLKKTESFDNLLSTVIDYADVVHSMARVTKGDQEIKTLLTALENVKSDFDGAADVISQMHKHFVIDDELNDQWTSSMHGKKCPCKTRASAQAKYLVERLRDSWQHLLRDRATRTLTYNDEQFHALEKIKVDHNGKRIKALLLDNVNPTVAQIAECLADWYKLAQTVYLKTQILEKDVRDCERKLNGIRDELYHVKSELKLDVDTKTINNNNQLAKIEERNRLRVMQQQQQEVMAVMRTNSDIISLLSKLGITNGSLESS
B3: Yolk protein 1 (protein, UniProt P02843 21-439)
chain: PNGRMDNSVNQALKPSQWLSGSQLEAIPALDDFTIERLENMNLERGAELLQQVYHLSQIHHNVEPNYVPSGIQVYVPKPNGDKTVAPLNEMIQRLKQKQNFGEDEVTIIVTGLPQTSETVKKATRKLVQAYMQRYNLQQQRQHGKNGNQDYQDQSNEQRKNQRTSSEEDYSEEVKNAKTQSGDIIVIDLGSKLNTYERYAMLDIEKTGAKIGKWIVQMVNELDMPFDTIHLIGQNVGAHVAGAAAQEFTRLTGHKLRRVTGLDPSKIVAKSKNTLTGLARGDAEFVDAIHTSVYGMGTPIRSGDVDFYPNGPAAGVPGASNVVEAAMRATRYFAESVRPGNERSFPAVPANSLQQYKQNDGFGKRAYMGIDTAHDLEGDYILQVNPKSPFGRNAPAQKQSSYHGVHQAWNTNQDSKDYQ
B4: Triosephosphate isomerase (enzyme, UniProt P29613 1-247)
chain: MSRKFCVGGNWKMNGDQKSIAEIAKTLSSAALDPNTEVVIGCPAIYLMYARNLLPCELGLAGQNAYKVAKGAFTGEISPAMLKDIGADWVILGHSERRAIFGESDALIAEKAEHALAEGLKVIACIGETLEEREAGKTNEVVARQMCAYAQKIKDWKNVVVAYEPVWAIGTGQTATPDQAQEVHAFLRQWLSDNISKEVSASLRIQYGGSVTAANAKELAKKPDIDGFLVGGASLKPEFVDIINARQ

target: T1, EGFP-Spn-F (Spindle-F) (Drosophila); assay: affinity purification with mass spectrometry; GFP-Spn-F (Actin-Gal4 driven) precipitated from adult fly head lysates with GFP magnetic beads (Chromoteck) overnight at 4 °C; lysis buffer 50 mM Tris-HCl pH 7.5, 150 mM NaCl, 1% NP-40, 0.5% sodium deoxycholate; washes 10 mM Tris-HCl pH 8.0, 150 mM NaCl, 0.1% NP-40; GFP-only flies as control; LC-MS/MS

binding, binds:
B1, B2, B3, B4
